This series can be described thus: MTT assay (cell survival). Conditions: monkey, vero cells.

For the compound `CC(C)=CCC[C@]1(C)[C@@H](CC=C(C)C)C[C@]2(CC=C(C)C)C(=O)C(CC=C(C)C)=C(O)[C@@]1(C(=O)C(C)C)C2=O` [Hyperforin, hyperforin, reference compound], the MNTC came out at 2 µg/mL.

The values are drawn from patent publication EP4094756A1 (priority 2021, dated 2022).
